Source: PMC5694551, “Kir2.1-Nav1.5 Channel Complexes Are Differently Regulated than Kir2.1 and Nav1.5 Channels Alone” (Frontiers in Physiology, 2017)
Results are given in words; binding and its absence hold for the method and conditions named. Binding seen in cells or lysates may run through a third protein. Some results given as binding are weak or reduced against the parent protein; the word gives no strength.

Molecular target: Nav1.5 channels of rat ventricular myocytes (rat (endogenous in ventricular myocytes)) (UniProt P15389)
Assay: proximity ligation; Duolink PLA in fixed, non-permeabilized rat ventricular myocytes; primary antibodies against extracellular domains of Nav1.5 and Kir2.1; buffers without detergents; confocal microscopy; negative control without primary antibodies

B1: Kir2.1 channels of rat ventricular myocytes (natural protein, rat (endogenous in ventricular myocytes), UniProt Q64273 1-427, looked up)
chain: MGSVRTNRYSIVSSEEDGMKLATMAVANGFGNGKSKVHTRQQCRSRFVKKDGHCNVQFINVGEKGQRYLADIFTTCVDIRWRWMLVIFCLAFVLSWLFFGCVFWLIALLHGDLDASKESKACVSEVNSFTAAFLFSIETQTTIGYGFRCVTDECPIAVFMVVFQSIVGCIIDAFIIGAVMAKMAKPKKRNETLVFSHNAVIAMRDGKLCLMWRVGNLRKSHLVEAHVRAQLLKSRITSEGEYIPLDQIDINVGFDSGIDRIFLVSPITIVHEIDEDSPLYDLSKQDIDNADFEIVVILEGMVEATAMTTQCRSSYLANEILWGHRYEPVLFEEKHCYKVDYSRFHKTYEVPNTPLCSARDLAEKKYILSNANSFCYENEVALTSKEEEDSENGVPESTSTDSPPGIDLHNQASVPLEPRPLRRESEI
notes: Kir2.1 inward rectifier K+ channel, endogenous at the membrane of Sprague-Dawley rat ventricular myocytes; source: endogenous, isolated rat ventricular myocytes (fixed, non-permeabilized)
binding: binds
